Source: paper PMC9010429
Results are given in words; binding and its absence hold for the method and conditions named. In cells and extracts the contact can be indirect. Some results given as binding are weak or reduced against the parent protein; the word gives no strength.

The chains behind the UniProt entries cited, without tags or fusion partners.
UniProt P36404: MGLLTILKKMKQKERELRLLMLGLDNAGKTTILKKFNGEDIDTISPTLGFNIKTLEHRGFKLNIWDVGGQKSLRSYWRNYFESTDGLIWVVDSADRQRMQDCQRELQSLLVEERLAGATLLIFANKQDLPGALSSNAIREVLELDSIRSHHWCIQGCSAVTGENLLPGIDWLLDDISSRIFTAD

Molecular target: FLAG-tagged human PDE6D (human) (UniProt O43924)
Assay: co-IP; anti-FLAG M2 affinity gel on lysates of P12-ICHIKAWA cells stably expressing FLAG-PDE6D, overnight at 4 °C, five washes with lysis buffer; cells treated with 100 µM DW0254 or DMSO; Western blot of the eluate

Substance: ADP-ribosylation factor-like protein 2 (ARL2) (from UniProt P36404 1-184)
- binding: binds
